Laboratory results from patent EP0537092A1, “Infracellular vesicular vectors and their application in cosmetic and medical compositions and culture media” (priority 1991, dated 1993).
The name of at least one read-out is uncertain.

Test system: fibroblastes
Type: cell-based, humaine
Conditions: Temps : 48 h; 40 µg/ml; factor of change (summary table)
Description: Les résultats des essais présentés ci-après ont été obtenus selon la méthodologie suivante : Conditions de culture : les fibroblastes sont obtenus à partir d'explants de peau humaine. Les cellules sont maintenues en culture dans du milieu DMEM (Gibco) additionné de 10 % de sérum de veau foetal (Gibco) et d'antibiotiques (pénicilline 100 U/ml, streptomycine 100 µg/ml).
Les subcultures sont réalisées par trypsination (Trypsin-EDTA, Gibco). Les cellules sont utilisées du 2e au 10e passage.
Conditions de traitements : Les cultures de fibroblastes témoins se réferent aux cultures avec vecteurs sans principe actif, en quantité similaire aux autres traitements. Les cultures traitées avec la molécule en solution se réfèrent aux conditions de la culture témoin et de la molécule sous forme soluble.
Les cultures traitées avec la forme vectoriale de la molécule impliquent que la molécule active soit inclue préalablement dans les vecteurs.
[…] Puis on ajoute le sel de tétrazolium jaune (5 mg / ml). Il est réduit par les réductases mitochondriales des cellules vivantes en un produit formazan violet qui est ensuite solubilisé par de l'HCl 0,04 N dans de l'isopropanol.
La réaction colorée est lue à une longueur d'onde de 570 nm par un Multiskan Titertek (Flow Laboratories) et exprimée en densité optique.

Palmitate d'hydroxyproline [Palmitate d'hydroxyproline Solution]
Prolifération: ÷3
